Results from patent publication US20180094075A1 (Pfizer, published 2018).
Results are given in words; binding and its absence hold for the method and conditions named. Some results given as binding are weak or reduced against the parent protein; the word gives no strength.

Sequences of proteins named here, by UniProt entry; tags and fusion partners are left off. A change or cut given only in a name is not applied to a line headed by its entry.
UniProt Q13308: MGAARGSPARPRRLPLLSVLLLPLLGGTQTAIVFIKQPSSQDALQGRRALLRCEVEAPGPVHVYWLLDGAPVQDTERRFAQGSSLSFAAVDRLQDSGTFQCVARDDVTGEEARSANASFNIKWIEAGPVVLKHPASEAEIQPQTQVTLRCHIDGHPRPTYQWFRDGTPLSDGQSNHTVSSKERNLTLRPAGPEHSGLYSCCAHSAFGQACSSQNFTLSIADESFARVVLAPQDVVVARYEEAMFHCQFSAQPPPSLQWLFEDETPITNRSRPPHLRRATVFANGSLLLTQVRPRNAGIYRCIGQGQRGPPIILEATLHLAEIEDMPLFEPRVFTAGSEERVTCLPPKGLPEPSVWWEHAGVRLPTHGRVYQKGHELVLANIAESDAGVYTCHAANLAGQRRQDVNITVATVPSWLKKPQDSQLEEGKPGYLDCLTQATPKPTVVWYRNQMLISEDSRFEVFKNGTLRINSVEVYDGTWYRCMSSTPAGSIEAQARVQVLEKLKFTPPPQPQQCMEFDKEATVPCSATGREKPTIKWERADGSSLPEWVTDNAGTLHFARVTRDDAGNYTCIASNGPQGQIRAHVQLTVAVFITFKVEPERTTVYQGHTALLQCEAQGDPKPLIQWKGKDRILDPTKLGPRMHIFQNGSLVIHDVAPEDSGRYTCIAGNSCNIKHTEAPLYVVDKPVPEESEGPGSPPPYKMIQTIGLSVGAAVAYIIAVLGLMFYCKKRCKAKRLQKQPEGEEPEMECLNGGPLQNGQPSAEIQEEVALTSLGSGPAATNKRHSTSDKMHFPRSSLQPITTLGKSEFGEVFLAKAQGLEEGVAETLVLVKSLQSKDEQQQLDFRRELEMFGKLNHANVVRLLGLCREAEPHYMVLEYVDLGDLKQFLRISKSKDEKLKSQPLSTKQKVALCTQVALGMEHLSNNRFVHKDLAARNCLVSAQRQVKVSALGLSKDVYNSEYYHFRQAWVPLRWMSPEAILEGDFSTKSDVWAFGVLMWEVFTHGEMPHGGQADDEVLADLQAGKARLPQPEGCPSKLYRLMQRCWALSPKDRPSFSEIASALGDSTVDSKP

Target: human PTK7 antigen (form not stated) (human) (UniProt Q13308)
Experiment: BIACORE

B1: hu58 (humanized anti-PTK7 antibody) (antibody, human IgG1, kappa, V domains shown)
VH: EVQLVESGGGLVQPGGSLRLSCAASGFDFSRYWMSWVRQAPGKGLEWIGDLNPDSSAINYVDSVKGRFTISRDNAKNSLYLQMNSLRAEDTAVYYCTLITTLVPYTMDFWGQGTSVTVSS
VL: ETTLTQSPAFMSATPGDKVNISCITNTDIDDDMNWYQQKPGEAAILLISEGNGLRPGIPPRFSGSGYGTDFTLTINNIESEDAAYYFCLQSDNLPLTFGSGTKLEIKR
For B1, the binding was “binds”.
